# Data taken from patent publication US10422791B2, “Haptens and conjugates derived from pyocyanin, antibodies thereof, and immunochemical method for detecting infections caused by Pseudomonas aeruginosa” (priority 2013, dated 2019).
# Assay: Recovery studies of the ELISA As230/PC1-BSA (AE) assay in spiked sputum
# Details: non-hydrolyzed, diluted 20 times with PBhST
smiles,measurement,setting,value
Oc1cccc2nc3ccccc3nc12 [1-hydroxyphenazine],Measured concentration,sputum spiked 0.5 nM,0.48 ± 0.05 nM
same,Measured concentration,sputum spiked 5 nM,4.32 ± 0.56 nM
same,Measured concentration,sputum spiked 50 nM,51.66 ± 2.38 nM
same,Measured concentration,sputum spiked 250 nM,246.09 ± 43.14 nM
